Experimental findings from publication PMC6704577 are described below.

Amino acid sequences for entries named in this document (tags omitted). A change or cut given only in a name is not applied to a line headed by its entry.
UniProt O43736: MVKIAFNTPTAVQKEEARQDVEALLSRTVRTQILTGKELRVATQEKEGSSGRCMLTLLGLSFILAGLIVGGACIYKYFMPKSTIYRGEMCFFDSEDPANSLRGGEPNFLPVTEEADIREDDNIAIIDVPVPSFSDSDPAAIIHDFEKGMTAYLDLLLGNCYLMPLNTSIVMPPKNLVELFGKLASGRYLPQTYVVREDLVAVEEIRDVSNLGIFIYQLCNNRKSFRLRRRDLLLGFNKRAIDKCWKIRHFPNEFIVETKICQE

The test concerns the target GST-ITM2A (integral membrane protein 2A fused to GST) (UniProt O43736). As to the kind of experiment: affinity purification with mass spectrometry; GST pull-down with the fused protein GST-ITM2A as bait; Coomassie-stained 70 kDa-100 kDa band analysed, peptide identified; source of the prey lysate not stated; only the target purified.

These are yes or no findings as the source states them, for the method shown. Binding seen in cells or lysates may run through a third protein. These calls come from enrichment with a bait or labelling near it, and not all partners need be listed. Sequences can lack the tags named with a protein.

B1: Up-regulated Neu-associated Kinase (HUNK), found in the GST-ITM2A precipitate (protein, UniProt P57058 1-714)
chain: MPAAAGDGLLGEPAAPGGGGGAEDAARPAAACEGSFLPAWVSGVPRERLRDFQHHKRVGNYLIGSRKLGEGSFAKVREGLHVLTGEKVAIKVIDKKRAKKDTYVTKNLRREGQIQQMIRHPNITQLLDILETENSYYLVMELCPGGNLMHKIYEKKRLEESEARRYIRQLISAVEHLHRAGVVHRDLKIENLLLDEDNNIKLIDFGLSNCAGILGYSDPFSTQCGSPAYAAPELLARKKYGPKIDVWSIGVNMYAMLTGTLPFTVEPFSLRALYQKMVDKEMNPLPTQLSTGAISFLRSLLEPDPVKRPNIQQALANRWLNENYTGKVPCNVTYPNRISLEDLSPSVVLHMTEKLGYKNSDVINTVLSNRACHILAIYFLLNKKLERYLSGKSDIQDSLCYKTRLYQIEKYRAPKESYEASLDTWTRDLEFHAVQDKKPKEQEKRGDFLHRPFSKKLDKNLPSHKQPSGSLMTQIQNTKALLKDRKASKSSFPDKDSFGCRNIFRKTSDSNCVASSSMEFIPVPPPRTPRIVKKPEPHQPGPGSTGIPHKEDPLMLDMVRSFESVDRDDHVEVLSPSHHYRILNSPVSLARRNSSERTLSPGLPSGSMSPLHTPLHPTLVSFAHEDKNSPPKEEGLCCPPPVPSNGPMQPLGSPNCVKSRGRFPMMGIGQMLRKRHQSLQPSADRPLEASLPPLQPLAPVNLAFDMADGVKTQC
Regarding B1, the binding result is “binds”.
